# Measured values from patent US12491229B2, “Stabilized peptide composition” (Shionogi & Co., Ltd., priority 2014, dated 2025).
# Not every detail of the peptide structures is certain; ends, links or a residue may be inferred. Ends that are not written are not given here.
# How the values were obtained:
# [1] = Solution stability of each peptide against pH; type: physicochemical; settings: five-peptide solution (Table 2) pH 8-11 stored for 6 hours at 25° C.; for level of increase of related substances derived from the peptide: FIGS. 2-1 to 2-3
# Experimental: Content and related substances were measured in accordance with the method of liquid chromatography described in general test section in Japan Pharmacopeia. To prepare the test sample, water for injection was added to the lyophilized sample, and each peptide concentration was adjusted to 0.12 mg/mL. Peak area of each peptide in the sample and the one in each standard of the drug substance were obtained, and content was calculated from dilution ratio and ratio of peak area in the sample to one in each standard described below. Residual of the content in the stability test was against the content at the time when the lyophilized sample was prepared. Related substances were calculated by ratio of peak area of the target related substance to all related substances and drug substances in each sample solution. The level of increase of the related substances was evaluated by the difference from the related substance at the moment when the lyophilized sample was prepared.
# Standard solution for measuring content of the peptide described as SEQ ID NO: 1 or SEQ ID NO: 2 was prepared in each by dissolving the peptide described above into 1.6 mg/mL phosphate solution and by adjusting each peptide concentration into 0.15 mg/mL. Standard solution for measuring content of the peptide described as SEQ ID NO: 3, SEQ ID NO: 4 or SEQ ID NO: 5 was prepared in each by dissolving the peptide described above into 12.1 mg/mL of 2-amnino-2-hydroxymethyl-1,3-propanediol aqueous solution and by adjusting each peptide concentration to 0.15 mg/mL. […]
# Stability of the peptide described as SEQ ID NOs: 1-5 was evaluated in each.
# The sample solution prepared with the compositions above was stored for 6 hours at 25° C. Then, the level of increase of related substances derived from the peptides described as SEQ ID NO: 1, SEQ ID NO: 2 or SEQ ID NO: 3 was measured in each, and residual of the peptides described as SEQ ID NO: 4 or SEQ ID NO: 5 was measured in each. […]
# [2] = Solubility study 2 of each peptide against pH (white turbidity on decreasing pH); type: physicochemical; settings: peptide 1.5 mg/g dissolved at pH 10, pH decreased gradually with hydrochloride solution
# Experimental: As shown in the study 1 described above, when the peptide was mixed directly with water for injection, the bulk was formed, and it was difficult to dissolve the bulk. So, solubility of peptides was evaluated thermodynamically by dissolving the peptide completely once with high pH, and decreasing the solution pH gradually to check pH when white turbidity was observed.
# The peptide described as SEQ ID NO: 1 or SEQ ID NO: 2 was dissolved into the solution with pH10 and solubility was examined by decreasing the solution pH in each. 15 mg of the peptide described as SEQ ID NO: 1 or SEQ ID NO: 2 was mixed with water, 0.1 mol/L sodium hydroxide solution was added for dissolution, and pH was adjusted to 10. Peptide concentration was adjusted to 1.5 mg/g. In each sample solution, hydrochloride solution was added to decrease pH gradually, and the appearance of the solution was checked.
Sequence,level of increase of related substances derived from the peptide [1],pH of the solution at which white turbidity was observed [2],"residual of the peptide ([1]; FIGS. 2-4, 2-5)"
"EYYELFVNI [SEQ ID NO: 1, EYYELFVNI]",not obviously influenced by pH change and solution stability was consistently high,≤ 5.6,–
"IYNEYIYDL [SEQ ID NO: 2, IYNEYIYDL]",increased and solution stability decreased with increasing solution pH,≤ 5.5,–
"VYGIRLEHF [SEQ ID NO: 4, VYGIRLEHF]",–,–,not obviously influenced by pH change and the solution stability was consistently high
